# Data from the supplement of paper PMC10077471.
# Whole data set: some 1,900 compounds, median “excess over highest single agent (ExcessHSA) synergy score, 6x6 matrix” near -83, cut for the lowest 2% near -370. Some of the results follow.
# Test system: NCI-H446
# Assay: excess over highest single agent (ExcessHSA) synergy score, 6x6 matrix; higher = less synergy (more negative = stronger synergy)
# Details: 72 h; CellTiter-Glo viability
row,SMILES,excess over highest single agent
1,COc1ccc(C(=O)CC(=O)c2ccc(C(C)(C)C)cc2)cc1 + Cc1sc2c(c1C)C(c1ccc(Cl)cc1)=N[C@@H](CC(=O)OC(C)(C)C)c1nnc(C)n1-2 [NCGC00250412-19],-86.4
2,CC1(C)SCCN(S(=O)(=O)c2ccc(OCC#CCO)cc2)[C@H]1C(=O)NO + Cc1sc2c(c1C)C(c1ccc(Cl)cc1)=N[C@@H](CC(=O)OC(C)(C)C)c1nnc(C)n1-2 [NCGC00250412-19],50
3,Nc1nc2c(ncn2COCCO)c(=O)[nH]1 + Cc1sc2c(c1C)C(c1ccc(Cl)cc1)=N[C@@H](CC(=O)OC(C)(C)C)c1nnc(C)n1-2 [NCGC00250412-19],77.6
4,Cc1cc(N2CCOCC2)cc2[nH]c(-c3c(NC[C@@H](O)c4cccc(Cl)c4)cc[nH]c3=O)nc12 + Cc1sc2c(c1C)C(c1ccc(Cl)cc1)=N[C@@H](CC(=O)OC(C)(C)C)c1nnc(C)n1-2 [NCGC00250412-19],-315
5,CS(=O)(=O)N1CCN(Cc2cc3nc(-c4cccc5[nH]ncc45)nc(N4CCOCC4)c3s2)CC1 + Cc1sc2c(c1C)C(c1ccc(Cl)cc1)=N[C@@H](CC(=O)OC(C)(C)C)c1nnc(C)n1-2 [NCGC00250412-19],-276
6,CC(C)NCC(O)c1ccc(O)c(O)c1 (configuration not stated) + Cc1sc2c(c1C)C(c1ccc(Cl)cc1)=N[C@@H](CC(=O)OC(C)(C)C)c1nnc(C)n1-2 [NCGC00250412-19],-158
7,COc1cc(F)c(F)c(Nc2ccc(I)cc2F)c1NS(=O)(=O)C1(C[C@H](O)CO)CC1 + Cc1sc2c(c1C)C(c1ccc(Cl)cc1)=N[C@@H](CC(=O)OC(C)(C)C)c1nnc(C)n1-2 [NCGC00250412-19],-178
8,CN[C@@H]1[C@@H](O)[C@@H](O[C@@H]2[C@@H](O)[C@H](O[C@H]3O[C@H](CN)[C@@H](O)[C@H](O)[C@H]3O)[C@@H](N)C[C@H]2NC(=O)[C@@H](O)CN)OC[C@]1(C)O + Cc1sc2c(c1C)C(c1ccc(Cl)cc1)=N[C@@H](CC(=O)OC(C)(C)C)c1nnc(C)n1-2 [NCGC00250412-19],-77.6
9,CCCCN(CCCC)CCC(O)c1cc2c(Cl)cc(Cl)cc2c2cc(C(F)(F)F)ccc12 (configuration not stated) + Cc1sc2c(c1C)C(c1ccc(Cl)cc1)=N[C@@H](CC(=O)OC(C)(C)C)c1nnc(C)n1-2 [NCGC00250412-19],-213
10,C#C[C@]1(O)CC[C@H]2[C@@H]3CCc4cc(O)ccc4[C@H]3CC[C@@]21C + Cc1sc2c(c1C)C(c1ccc(Cl)cc1)=N[C@@H](CC(=O)OC(C)(C)C)c1nnc(C)n1-2 [NCGC00250412-19],-211
11,COc1cc2nc(-c3ccc(N4CCN(C)CC4)cc3)nc(NCCN3CCOCC3)c2cc1OC + Cc1sc2c(c1C)C(c1ccc(Cl)cc1)=N[C@@H](CC(=O)OC(C)(C)C)c1nnc(C)n1-2 [NCGC00250412-19],-31.8
12,Cn1c(=O)n(-c2ccc(C(C)(C)C#N)cc2)c2c3cc(-c4cnc5ccccc5c4)ccc3ncc21 + Cc1sc2c(c1C)C(c1ccc(Cl)cc1)=N[C@@H](CC(=O)OC(C)(C)C)c1nnc(C)n1-2 [NCGC00250412-19],-327
13,O=C(OCC#CCSc1nnc(-c2cccc3ccccc23)o1)c1cc2ccccc2s1 + Cc1sc2c(c1C)C(c1ccc(Cl)cc1)=N[C@@H](CC(=O)OC(C)(C)C)c1nnc(C)n1-2 [NCGC00250412-19],-169
14,CCOc1cc(CC(=O)N[C@@H](CC(C)C)c2ccccc2N2CCCCC2)ccc1C(=O)O + Cc1sc2c(c1C)C(c1ccc(Cl)cc1)=N[C@@H](CC(=O)OC(C)(C)C)c1nnc(C)n1-2 [NCGC00250412-19],-80.5
15,O=C(O)C(Cc1c[nH]c2ccccc12)N1C(=O)c2ccccc2C1=O (configuration not stated) + Cc1sc2c(c1C)C(c1ccc(Cl)cc1)=N[C@@H](CC(=O)OC(C)(C)C)c1nnc(C)n1-2 [NCGC00250412-19],-158
16,COCC1OC(=O)c2coc3c2C1(C)C1=C(C3=O)C2CCC(O)C2(C)CC1OC(C)=O (configuration not stated) + Cc1sc2c(c1C)C(c1ccc(Cl)cc1)=N[C@@H](CC(=O)OC(C)(C)C)c1nnc(C)n1-2 [NCGC00250412-19],-423
17,O=NN(CCCl)C(=O)NCCCl + Cc1sc2c(c1C)C(c1ccc(Cl)cc1)=N[C@@H](CC(=O)OC(C)(C)C)c1nnc(C)n1-2 [NCGC00250412-19],-51.8
18,CCOC(=O)c1ncn2c1CN(C)C(=O)c1cc(F)ccc1-2 + Cc1sc2c(c1C)C(c1ccc(Cl)cc1)=N[C@@H](CC(=O)OC(C)(C)C)c1nnc(C)n1-2 [NCGC00250412-19],53.7
19,CNC(=O)c1ccccc1Nc1nc(Nc2ccc(N3CCOCC3)cc2OC)ncc1Cl + Cc1sc2c(c1C)C(c1ccc(Cl)cc1)=N[C@@H](CC(=O)OC(C)(C)C)c1nnc(C)n1-2 [NCGC00250412-19],-63.2

row,SMILES,excess over highest single agent
1,CC1=C(C(=O)Nc2cc3cn[nH]c3cc2F)C(c2ccc(C(F)(F)F)cc2)CC(=O)N1 (configuration not stated) + Cc1sc2c(c1C)C(c1ccc(Cl)cc1)=N[C@@H](CC(=O)OC(C)(C)C)c1nnc(C)n1-2 [NCGC00250412-19],-53.3
2,O=C(Nc1ccncc1)C(=O)c1cn(Cc2ccc(Cl)cc2)c2ccccc12 + Cc1sc2c(c1C)C(c1ccc(Cl)cc1)=N[C@@H](CC(=O)OC(C)(C)C)c1nnc(C)n1-2 [NCGC00250412-19],-184
3,COC(=O)N[C@H](C(=O)N1CCC[C@H]1c1ncc(-c2ccc(-c3ccc(-c4cnc([C@@H]5CCCN5C(=O)[C@@H](NC(=O)OC)C(C)C)[nH]4)cc3)cc2)[nH]1)C(C)C + Cc1sc2c(c1C)C(c1ccc(Cl)cc1)=N[C@@H](CC(=O)OC(C)(C)C)c1nnc(C)n1-2 [NCGC00250412-19],-60.2
4,Nc1nc(N)c2nc(CNc3ccc(C(=O)N[C@@H](CCC(=O)O)C(=O)O)cc3)cnc2n1 + Cc1sc2c(c1C)C(c1ccc(Cl)cc1)=N[C@@H](CC(=O)OC(C)(C)C)c1nnc(C)n1-2 [NCGC00250412-19],-252
5,CCCC1O[C@@H]2C[C@H]3[C@@H]4CCC5=CC(=O)C=C[C@]5(C)[C@H]4[C@@H](O)C[C@]3(C)[C@]2(C(=O)CO)O1 (some centres not stated) + Cc1sc2c(c1C)C(c1ccc(Cl)cc1)=N[C@@H](CC(=O)OC(C)(C)C)c1nnc(C)n1-2 [NCGC00250412-19],22.3
6,COc1cc(C(C)=O)ccc1OCCCN1CCC(c2noc3cc(F)ccc23)CC1 + Cc1sc2c(c1C)C(c1ccc(Cl)cc1)=N[C@@H](CC(=O)OC(C)(C)C)c1nnc(C)n1-2 [NCGC00250412-19],-238
7,COc1ccc(/C=C\c2cc(OC)c(OC)c(OC)c2)cc1O + Cc1sc2c(c1C)C(c1ccc(Cl)cc1)=N[C@@H](CC(=O)OC(C)(C)C)c1nnc(C)n1-2 [NCGC00250412-19],-98.5
8,Nc1[nH]nc2nnc(-c3c(-c4ccccc4)nn4ccccc34)cc12 + Cc1sc2c(c1C)C(c1ccc(Cl)cc1)=N[C@@H](CC(=O)OC(C)(C)C)c1nnc(C)n1-2 [NCGC00250412-19],98.9
9,CC(C)OC(=O)CCC/C=C\C[C@@H]1[C@@H](/C=C/[C@@H](O)COc2cccc(C(F)(F)F)c2)[C@H](O)C[C@@H]1O + Cc1sc2c(c1C)C(c1ccc(Cl)cc1)=N[C@@H](CC(=O)OC(C)(C)C)c1nnc(C)n1-2 [NCGC00250412-19],-230
10,CCOC(=O)N1CCN([N+]([O-])=NOc2ccc([N+](=O)[O-])cc2[N+](=O)[O-])CC1 + Cc1sc2c(c1C)C(c1ccc(Cl)cc1)=N[C@@H](CC(=O)OC(C)(C)C)c1nnc(C)n1-2 [NCGC00250412-19],-84.4
11,O=C(N[C@H]1CN2CCC1CC2)c1ccc(Cl)cc1 + Cc1sc2c(c1C)C(c1ccc(Cl)cc1)=N[C@@H](CC(=O)OC(C)(C)C)c1nnc(C)n1-2 [NCGC00250412-19],-70.5
12,Cc1cc(NS(=O)(=O)c2ccc(N)cc2)no1 + Cc1sc2c(c1C)C(c1ccc(Cl)cc1)=N[C@@H](CC(=O)OC(C)(C)C)c1nnc(C)n1-2 [NCGC00250412-19],334
13,CC(C)N(CCCNC(=O)Nc1ccc(C(C)(C)C)cc1)C[C@H]1O[C@@H](n2cc(Br)c3c(N)ncnc32)[C@H](O)[C@@H]1O + Cc1sc2c(c1C)C(c1ccc(Cl)cc1)=N[C@@H](CC(=O)OC(C)(C)C)c1nnc(C)n1-2 [NCGC00250412-19],-14.8
14,COc1cc(N2CCN(C)CC2)ccc1Nc1nc(N)c(C(=O)c2c(Cl)cccc2Cl)s1 + Cc1sc2c(c1C)C(c1ccc(Cl)cc1)=N[C@@H](CC(=O)OC(C)(C)C)c1nnc(C)n1-2 [NCGC00250412-19],-47.4
15,O=C(C[C@@H]1C/C=C/CCC(=O)O[C@H](c2ccccc2)CNC1=O)NCc1ccc(Cl)cc1 + Cc1sc2c(c1C)C(c1ccc(Cl)cc1)=N[C@@H](CC(=O)OC(C)(C)C)c1nnc(C)n1-2 [NCGC00250412-19],-98.1
16,Cc1cc(OCCCS(C)(=O)=O)cc(C)c1-c1cccc(COc2ccc3c(c2)OC[C@H]3CC(=O)O)c1 + Cc1sc2c(c1C)C(c1ccc(Cl)cc1)=N[C@@H](CC(=O)OC(C)(C)C)c1nnc(C)n1-2 [NCGC00250412-19],-123
17,CCN(CC)C(=S)SSC(=S)N(CC)CC + Cc1sc2c(c1C)C(c1ccc(Cl)cc1)=N[C@@H](CC(=O)OC(C)(C)C)c1nnc(C)n1-2 [NCGC00250412-19],-184
18,Cn1cc(C[C@@H](N)C(=O)O)c2ccccc21 + Cc1sc2c(c1C)C(c1ccc(Cl)cc1)=N[C@@H](CC(=O)OC(C)(C)C)c1nnc(C)n1-2 [NCGC00250412-19],-157

# A section of the results above:
row,SMILES,excess over highest single agent
13,CC(C)N(CCCNC(=O)Nc1ccc(C(C)(C)C)cc1)C[C@H]1O[C@@H](n2cc(Br)c3c(N)ncnc32)[C@H](O)[C@@H]1O + Cc1sc2c(c1C)C(c1ccc(Cl)cc1)=N[C@@H](CC(=O)OC(C)(C)C)c1nnc(C)n1-2 [NCGC00250412-19],-14.8
14,COc1cc(N2CCN(C)CC2)ccc1Nc1nc(N)c(C(=O)c2c(Cl)cccc2Cl)s1 + Cc1sc2c(c1C)C(c1ccc(Cl)cc1)=N[C@@H](CC(=O)OC(C)(C)C)c1nnc(C)n1-2 [NCGC00250412-19],-47.4
15,O=C(C[C@@H]1C/C=C/CCC(=O)O[C@H](c2ccccc2)CNC1=O)NCc1ccc(Cl)cc1 + Cc1sc2c(c1C)C(c1ccc(Cl)cc1)=N[C@@H](CC(=O)OC(C)(C)C)c1nnc(C)n1-2 [NCGC00250412-19],-98.1
